{"source": "patent US20230172915A1", "about": "“DHODH INHIBITOR FOR THE TREATMENT OF COVID-19” (priority 2020, published 2023)", "tested_on": "SARS-CoV-2 USA-WA1/2020", "test": "PTC299 and remdesivir alone or combined, SARS-CoV-2 titer in Vero cells (TCID50)", "assay_type": "cell-based", "details": "remdesivir 2.5 µM, 24 hours post infection", "note": "At least one compound was matched to its structure with a doubt left.", "data": [{"smiles": "CCC(CC)COC(=O)[C@H](C)N[P@](=O)(OC[C@H]1O[C@@](C#N)(c2ccc3c(N)ncnn23)[C@H](O)[C@@H]1O)Oc1ccccc1", "note": "[Remdesivir, remdesivir, reference compound]", "values": [{"measurement": "reduction in titer relative to untreated control", "result": "did not cause a reduction in titer"}]}]}
